Values quoted from earlier work as cited in patent EP1056745B1, “6,9-DISUBSTITUTED 2- TRANS-(4- AMINOCYCLOHEXYL) AMINO]PURINES” (Aventis Pharmaceuticals Inc., priority 1998, dated 1999).

Test system: 60 human tumour cell lines
Conditions: read-out: average IC50; average over 60 lines, nine tumour types; cited from earlier work

SMILES: CCC(CO)Nc1nc(NCc2ccccc2)c2ncn(C(C)C)c2n1 (stereo not shown) [Roscovitine, 2-(1-ethyl-2-hydroxyethylamino)-6-benzylamino-9-isopropylpurine]
- IC50: 16 µM
